PubChem BioAssay AID1259281 – Sanger Institute | 2017
In all, the deposit lists 794 reagents; shown is a part drawn at random. Of all reagents, 22 (2.8%) were called active. 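Calls rest on knock-down alone only; drug synergy scores play no part in them.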 Viability is capped at 1. The record does not give: the amount of reagent, the time to read-out.

Aim: 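Screen kinases and frequently colorectal-mutated genes for lethal knock-downs and drug partners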 (primary screen)
Cell system: human COLO678 colorectal cancer cell line
Reagents: siRNA pool against human genes
Challenge: anchor drugs at fixed doses: BYL719 1 µM, cetuximab 5 µg/ml or trametinib 10 nM; DMSO vehicle for the siRNA-alone arm
Read-out: 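Surviving cells scaled to non-targeting siRNA control as replicate means; robust z-score for knock-down alone; synergy scores weigh knock-down with drug against the predicted combined effect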
Scale: robust z-score, siRNA alone: higher = more viable cells; strongly negative means essential; viability, siRNA alone: higher = more surviving cells; synergy score with BYL719 and synergy score with trametinib and synergy score with cetuximab: higher = stronger synergistic killing with drug
Rule for the call: 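Essential (knock-down alone) when the siRNA-alone robust z-score is below -3; otherwise no change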
Calls: active = essential (knock-down alone); inactive = no change

no.	Gene	robust z-score, siRNA alone	viability, siRNA alone (fraction of control)	synergy score with BYL719	synergy score with trametinib	synergy score with cetuximab	Outcome
1	CDK3	0.473	1	-0.0337	-0.0163	-0.0246	inactive
2	PRKD1	0.0183	0.986	-0.105	0.117	0.0581	inactive
3	RPS6KA5	-1.31	0.943	-0.0954	-0.0416	0.0207	inactive
4	TPK1	0.473	1	-0.0396	0.0393	-0.0487	inactive
5	MPP3	0.473	1	0.0794	0.0955	0.0379	inactive
6	MAP4K1	-0.0994	0.982	0.0237	0.000914	-0.0444	inactive
7	PI4K2A	0.473	1	-0.0787	0.062	0.00753	inactive
8	PAPSS2	0.473	1	0.131	-0.00532	0.0354	inactive
9	ACVR1	0.473	1	0.0119	0.0556	0.0323	inactive
10	LMTK3	0.468	1	-0.0921	-0.0282	0.0257	inactive
11	MAP2K6	0.277	0.994	0.00101	0.0269	-0.0191	inactive
12	PSKH1	0.473	1	-0.0431	0.0536	-0.0228	inactive
13	PRKY	0.473	1	0.00452	-0.0254	0.00786	inactive
14	PKM	0.473	1	-0.0765	-0.0407	0.0121	inactive
15	SOX9	0.473	1	-0.0408	-0.0436	-0.0194	inactive
16	GSK3A	0.473	1	-0.0279	0.177	0.0691	inactive
17	PIP4K2C	-1.38	0.941	0.0337	0.0208	-0.0348	inactive
18	PIM3	0.473	1	-0.0625	0.0659	-0.0195	inactive
19	MAST2	0.473	1	0.0653	0.0339	0.00614	inactive
20	LMTK2	0.473	1	0.0179	0.0222	-0.0129	inactive
21	ATP23	0.473	1	-0.0919	0.0292	-0.0585	inactive
22	CRKL	0.473	1	-0.0919	-0.0474	0.0224	inactive
23	EPHA4	0.473	1	-0.0212	0.157	0.0375	inactive
24	RTN4	0.473	1	0.0479	0.0966	-0.0681	inactive
25	COASY	-1.57	0.935	0.0583	0.0274	0.108	inactive
26	PTK2B	0.473	1	-0.0919	0.0851	0.0852	inactive
27	MERTK	0.473	1	0.0159	0.0176	0.043	inactive
28	MAGI3	0.473	1	-0.0919	-0.0305	-0.0191	inactive
29	CDK11B	0.473	1	-0.0179	-0.0545	0.0197	inactive
30	PTEN	0.473	1	-0.0919	-0.0329	0.0538	inactive
31	CDK11A	0.473	1	-0.0919	0.0585	-0.0681	inactive
32	MST1R	0.473	1	-0.0385	-0.0396	-0.0603	inactive
33	STRADB	0.473	1	-0.0918	-0.0662	0.0845	inactive
34	CDKN1C	0.473	1	-0.0919	-0.00473	0.0299	inactive
35	DSTYK	0.473	1	-0.00332	0.0939	0.0131	inactive
36	NRBP1	0.473	1	-0.00867	0.0761	-0.0404	inactive
37	NME5	0.473	1	-0.0919	0.064	-0.0681	inactive
38	SPHK1	0.473	1	-0.0299	0.0792	0.0499	inactive
39	CDK12	0.296	0.994	-0.0583	0.0114	0.0324	inactive
40	PAPSS1	0.255	0.993	-0.0855	0.0517	0.00561	inactive
41	EGFR	-0.715	0.962	0.0717	0.0196	0.081	inactive
42	PIK3R5	0.473	1	-0.0789	0.0929	-0.0575	inactive
43	STK40	-0.861	0.958	-0.0839	-0.00203	-0.029	inactive
44	CAMKK2	0.473	1	-0.0478	-0.0274	-0.0518	inactive
45	TRIM27	0.473	1	-0.0919	0.00077	0.0229	inactive
46	ALPK3	0.473	1	-0.0919	-0.00926	0.000739	inactive
47	MAP3K8	-4.02	0.857	0.0538	-0.0785	-0.00365	active
48	DUSP21	0.473	1	0.0758	-0.000437	0.0334	inactive
49	MAP3K13	-1.06	0.951	0.0702	0.0196	-0.0051	inactive
50	ZC3H11A	0.473	1	0.0713	-0.0326	-0.0681	inactive

Only “robust z-score, siRNA alone”, for 4 of the entries above:
STRADB = 0.473
CDKN1C = 0.473
DSTYK = 0.473
NRBP1 = 0.473
